Laboratory results published in PMC4131480.
No constants are given. Whether binding was seen depends on the method and setting. In cells and extracts the contact can be indirect. Some entries that bind do so weakly or less than the wild type.

By UniProt entry, the sequences of proteins in these tests, tags left out.
UniProt P33533: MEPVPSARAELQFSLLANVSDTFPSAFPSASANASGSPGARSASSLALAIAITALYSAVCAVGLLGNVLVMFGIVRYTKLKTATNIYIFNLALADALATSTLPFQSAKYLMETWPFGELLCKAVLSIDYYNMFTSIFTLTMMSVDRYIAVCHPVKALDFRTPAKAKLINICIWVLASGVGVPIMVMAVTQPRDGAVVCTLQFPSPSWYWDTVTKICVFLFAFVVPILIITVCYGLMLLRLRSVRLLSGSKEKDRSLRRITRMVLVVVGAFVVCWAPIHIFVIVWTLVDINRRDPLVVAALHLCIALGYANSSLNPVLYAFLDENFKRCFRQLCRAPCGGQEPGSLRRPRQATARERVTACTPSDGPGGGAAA
UniProt O35433: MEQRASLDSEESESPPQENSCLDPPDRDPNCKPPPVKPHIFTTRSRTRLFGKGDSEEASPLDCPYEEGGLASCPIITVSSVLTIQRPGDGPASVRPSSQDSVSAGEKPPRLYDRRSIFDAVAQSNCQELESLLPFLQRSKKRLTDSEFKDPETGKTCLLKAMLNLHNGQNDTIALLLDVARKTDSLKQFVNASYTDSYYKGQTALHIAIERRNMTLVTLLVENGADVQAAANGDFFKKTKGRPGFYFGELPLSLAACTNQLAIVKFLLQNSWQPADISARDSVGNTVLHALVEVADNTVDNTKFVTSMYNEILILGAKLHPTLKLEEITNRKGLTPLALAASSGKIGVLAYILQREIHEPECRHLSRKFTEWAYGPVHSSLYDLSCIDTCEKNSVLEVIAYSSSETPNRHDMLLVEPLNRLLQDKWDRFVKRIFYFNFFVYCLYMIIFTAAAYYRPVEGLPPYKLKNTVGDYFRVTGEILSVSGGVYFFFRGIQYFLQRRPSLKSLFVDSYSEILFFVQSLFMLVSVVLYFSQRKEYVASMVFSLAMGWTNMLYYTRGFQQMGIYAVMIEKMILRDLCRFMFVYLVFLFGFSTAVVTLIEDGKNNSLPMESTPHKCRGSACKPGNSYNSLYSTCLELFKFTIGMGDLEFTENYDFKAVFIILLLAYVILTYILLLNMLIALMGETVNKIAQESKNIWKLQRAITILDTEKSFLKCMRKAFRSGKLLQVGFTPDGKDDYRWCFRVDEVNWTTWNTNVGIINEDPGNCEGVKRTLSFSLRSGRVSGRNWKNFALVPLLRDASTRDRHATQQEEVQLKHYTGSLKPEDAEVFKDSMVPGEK
UniProt P29067: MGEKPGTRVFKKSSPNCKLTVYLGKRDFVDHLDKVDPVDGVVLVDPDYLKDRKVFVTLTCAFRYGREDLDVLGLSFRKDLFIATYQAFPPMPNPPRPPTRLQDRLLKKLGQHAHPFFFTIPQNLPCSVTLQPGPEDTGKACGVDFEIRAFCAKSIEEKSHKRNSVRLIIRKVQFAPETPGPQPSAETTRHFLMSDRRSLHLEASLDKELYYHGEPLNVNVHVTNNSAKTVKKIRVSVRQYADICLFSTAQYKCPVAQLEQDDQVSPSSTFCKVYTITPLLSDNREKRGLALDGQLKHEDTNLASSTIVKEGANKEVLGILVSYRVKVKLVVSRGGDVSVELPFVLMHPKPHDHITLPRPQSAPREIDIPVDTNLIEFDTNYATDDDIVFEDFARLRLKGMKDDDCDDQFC

Experiments:
[1] = biological target: delta opioid receptor (rat (endogenous in trigeminal ganglion neurons)) (UniProt P33533); experiment: co-IP; plasma membranes of cultured rat TG neurons pretreated with SNC80 (1 μM), ARM390 (1 μM) or vehicle (0.1% DMSO) for 30 min; IP for DOPr or TRPV1, Western blot for β-arrestin2
[2] = biological target: transient receptor potential vanilloid type 1 (rat (endogenous in trigeminal ganglion neurons)) (UniProt O35433); experiment: as above

With β-arrestin2 (from UniProt P29067 1-410) the binding [1] was “binds” and the binding [2] was “binds”.
